Reference: PubChem BioAssay (Tox21)
These results got no clear call from the source, so the numbers are uncertain. Calls come from the whole dose curve; as a rule, active = well fitted cell-killing curve with a large enough effect in the repeat runs; inconclusive = weak or mixed curves, or effect the other way; inactive = flat fitted curve, though single readings scatter.

Assay: cAMP Responsive Elements (CRE) small molecule antagonists, cell-based qHTS assay: qHTS cell viability counter screen (AID 2060913); note: nearly all actives have a fitted effect of over 40% in size
Conditions: CRE-bla HEK293T viability, CellTiter-Glo luminescence, 5 h
Description: U.S. Tox21 Program National Center for Advancing Translational Sciences [NCATS] Division of Preclinical Innovation [DPI] U.S. Environmental Protection Agency [EPA] National Institutes of Environmental Health Sciences [NIEHS] National Toxicology Program [NTP] U.S. Food and Drug Administration [FDA] Tox21 Assay Overview: CREB (cyclic-AMP Responsive Element Binding Protein) is a cellular transcription factor. It binds to certain DNA sequences called cAMP Responsive Elements (CRE) and regulates the transcription of the genes. […] This cell line can be used to find agonists/antagonists of the cyclic AMP signaling pathway. The activation of the report gene under culture conditions can be detected by fluorescence intensity. […]
Tox21 Assay Protocol Summary: CRE-bla Hek 293T cells were suspended in assay medium (DMEM containing 10% dialyzed FBS, 0.1 mM NEAA, 1 mM sodium pyruvate and 25 mM HEPES) and dispensed at 2,000 cells/4 uL /well into 1536-well black wall/clear bottom plates using a Multidrop Combi (ThermoFisher Scientific, Waltham, MA) dispenser. […] The plates were incubated at room temperature for 2 h, then fluorescence intensities were measured using an Envision plate reader (PerkinElmer, Shelton, CT) at Excitation 405nm, Emission 460nm and 530nm. The % activity was determined from the ratio of 460nm/530nm. […]
Potency is the fitted concentration of half-maximal effect.

## Nc1cc([N+](=O)[O-])cc([N+](=O)[O-])c1O
  Potency: inconclusive: 1.25 µM
